Article PMC11879501
Construct, isoform or probe ends are uncertain for at least one entry.

Test system: GST-FhMYBPA2 (Freesia hybrida 'Red River')
Assay: EMSA
Conditions: EMSA kit (Beyotime) per manufacturer's instructions; pH and temperature not stated; recombinant protein; protein details: N-terminal GST (pGEX-4T-2)

Sequence | binding result
GTAATTAGCATATATGGATAGAATTGCATTTAATT (double strand) [FhDFR3 probe] | binds
TCAAATCCCAAATGCAACAGAATAACTGATCAGA (double strand) [FhTTG1 probe] | binds
